Values from PubChem BioAssay AID1224830 (NIAID, 2016).
Shown is a random part of about 18,000 reagents. About 2,900 of them (16%) were called active. 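Calls are made per well; low scores hint the gene aids the LPS response, high scores that it dampens it.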 Repeated entries: four replicate wells of each siRNA pool. No sequences are given here.

- Test: 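Genes whose knock-down alters the TNF-alpha reporter response to LPS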 (primary screen)
- Cell system: human THP-1 monocytic leukaemia cells, TNF dual-luciferase reporter clone, PMA-differentiated to macrophage-like cells
- Knock-down reagent: siRNA pool against human genes, 50 nM
- Duration: LPS for 4 h, given about 3 days after siRNA transfection
- Conditions: bacterial LPS (TLR4 ligand), 10 ng/ml
- Read-out: 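TNF firefly reporter luminescence divided by renilla, normalised to the plate median, then turned into a robust z-score for each replicate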
- Scale: TNF reporter robust z-score: higher = stronger TNF reporter response to LPS
- Hit rule: 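a well is active when its z-score exceeds 2.8 or falls below -1.5; control wells carry no call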

KLHDC9 (GeneID 126823) [SID315461728] | TNF reporter robust z-score: 4.36; activity call: active
KLHDC9 (GeneID 126823) [SID315461728] | TNF reporter robust z-score: 3.41; activity call: active
KLHDC9 (GeneID 126823) [SID315461728] | TNF reporter robust z-score: 1.02; activity call: inactive
KLHDC9 (GeneID 126823) [SID315461728] | TNF reporter robust z-score: 0.96; activity call: inactive
PIP4P2 (GeneID 55529) [SID315457667] | TNF reporter robust z-score: 0.17; activity call: inactive
PIP4P2 (GeneID 55529) [SID315457667] | TNF reporter robust z-score: 1.29; activity call: inactive
PIP4P2 (GeneID 55529) [SID315457667] | TNF reporter robust z-score: 0.25; activity call: inactive
PIP4P2 (GeneID 55529) [SID315457667] | TNF reporter robust z-score: 2.31; activity call: inactive
RTP3 (GeneID 83597) [SID315460032] | TNF reporter robust z-score: -0.1; activity call: inactive
RTP3 (GeneID 83597) [SID315460032] | TNF reporter robust z-score: 0.5; activity call: inactive
RTP3 (GeneID 83597) [SID315460032] | TNF reporter robust z-score: -0.08; activity call: inactive
RTP3 (GeneID 83597) [SID315460032] | TNF reporter robust z-score: 0.3; activity call: inactive
HLA-DMB (GeneID 3109) [SID315449204] | TNF reporter robust z-score: 2.05; activity call: inactive
HLA-DMB (GeneID 3109) [SID315449204] | TNF reporter robust z-score: 6.42; activity call: active
HLA-DMB (GeneID 3109) [SID315449204] | TNF reporter robust z-score: 1.1; activity call: inactive
HLA-DMB (GeneID 3109) [SID315449204] | TNF reporter robust z-score: 2.1; activity call: inactive
PNPLA5 (GeneID 150379) [SID315462453] | TNF reporter robust z-score: 0; activity call: inactive
PNPLA5 (GeneID 150379) [SID315462453] | TNF reporter robust z-score: 0.9; activity call: inactive
PNPLA5 (GeneID 150379) [SID315462453] | TNF reporter robust z-score: 0.4; activity call: inactive
PNPLA5 (GeneID 150379) [SID315462453] | TNF reporter robust z-score: 1.77; activity call: inactive
ZSCAN29 (GeneID 146050) [SID315462264] | TNF reporter robust z-score: 0.52; activity call: inactive
ZSCAN29 (GeneID 146050) [SID315462264] | TNF reporter robust z-score: 1.4; activity call: inactive
ZSCAN29 (GeneID 146050) [SID315462264] | TNF reporter robust z-score: 0.24; activity call: inactive
ZSCAN29 (GeneID 146050) [SID315462264] | TNF reporter robust z-score: 0.59; activity call: inactive
GALK1 (GeneID 2584) [SID315448824] | TNF reporter robust z-score: -1.38; activity call: inactive
GALK1 (GeneID 2584) [SID315448824] | TNF reporter robust z-score: -0.92; activity call: inactive
GALK1 (GeneID 2584) [SID315448824] | TNF reporter robust z-score: -1.17; activity call: inactive
GALK1 (GeneID 2584) [SID315448824] | TNF reporter robust z-score: -1.53; activity call: active
MEGF10 (GeneID 84466) [SID315460378] | TNF reporter robust z-score: -0.6; activity call: inactive
MEGF10 (GeneID 84466) [SID315460378] | TNF reporter robust z-score: -0.34; activity call: inactive
MEGF10 (GeneID 84466) [SID315460378] | TNF reporter robust z-score: 0.29; activity call: inactive
MEGF10 (GeneID 84466) [SID315460378] | TNF reporter robust z-score: -0.52; activity call: inactive
